Measurements as given in the odorant receptor screen of Mainland et al. (2015).
“And” between values parts separate entries of the source, which are not always exact repeats. Identical values can stand only once. Some of the results follow. Each value is one well over the wells without odorant, computed here; the data are noisy.

Columns and labels:
Assay in all cases: odorant receptor activation (CRE luciferase / Renilla) (fold of no-odor wells); higher = more activation
Details in all cases: 100 µM
[1] = tested on: OR1J2 clone 1443
[2] = tested on: OR1J4 clone 1429
[3] = tested on: OR1K1 clone 1315
[4] = tested on: OR1L1 clone 1379
[5] = tested on: OR1L3 clone 1090
[6] = tested on: OR1L4 G234R clone 1102
[7] = tested on: OR1L6 Q23K/C150Y/I215T/R221Q/M223I/G234R clone 1539
[8] = tested on: OR1L8 clone 1088
[9] = tested on: OR1M1 clone 1198
[10] = tested on: OR1N1 clone 1463
[11] = tested on: OR1N2 W23R/V230G/T287M clone 1105
[12] = tested on: OR1N2 W37R/V244G/T301M clone 1350
[13] = tested on: OR1N2 clone 1505
[14] = tested on: OR1Q1 Q24R/I163M clone 1103
[15] = tested on: OR1S1 clone 1455
[16] = tested on: OR1S2 I46T clone 1137
[17] = tested on: OR2A1 clone 1078
[18] = tested on: OR2A12 clone 1085
[19] = tested on: OR2A14 Indel clone 1540
[20] = tested on: OR2A14 clone 1083

SMILES | odorant receptor activation [1] | odorant receptor activation [2] | odorant receptor activation [3] | odorant receptor activation [4] | odorant receptor activation [5] | odorant receptor activation [6] | odorant receptor activation [7] | odorant receptor activation [8] | odorant receptor activation [9] | odorant receptor activation [10] | odorant receptor activation [11] | odorant receptor activation [12] | odorant receptor activation [13] | odorant receptor activation [14] | odorant receptor activation [15] | odorant receptor activation [16] | odorant receptor activation [17] | odorant receptor activation [18] | odorant receptor activation [19] | odorant receptor activation [20]
CC(C)CC(=O)O [isovaleric acid] | 0.836 | 0.725 | 0.232 | 0.892 | 1.16 | 0.943 | 0.986 | 1.14 | 1.42 | 0.997 | 1.07 | 0.811 | 1.01 | 1.09 | 0.732 | 1.65 | 1.3 | 1.25 | 0.746 | 1.02
CC(C)CCC(=O)O [4-methylvaleric acid] | 1.21 | 1.21 | 0.925 | 0.925 | 16 | 10.1 | 1.1 | 1.36 | 0.796 | 0.812 | 2.66 | 0.974 | 0.814 | 11.4 | 0.857 | 0.825 | 2.65 | 1.24 | 1.09 | 1.72
CC1=NC(C)SC1C (centres undefined) | 1.12 | 1.11 | 1.37 | 1.04 | 1.08 | 0.854 |  | 1.39 | 1.04 | 0.951 and 0.916 | 2.41 | 1.14 and 1.04 | 1.2 and 1.01 | 0.431 |  | 0.689 | 1.22 | 1.76 |  | 1.11
c1cnccn1 [pyrazine] | 1.27 | 1.22 | 0.938 | 1.26 | 1.21 | 1.07 | 0.78 | 1.09 | 1.15 | 0.901 | 1.17 | 0.482 | 1.09 | 1.3 | 0.939 | 1.05 | 1.07 | 0.864 | 0.769 | 1.23
CCCCCCC=O [heptaldehyde] | 0.974 and 0.518 | 1.03 and 0.806 | 0.774 and 1.02 and 0.989 | 0.831 and 0.757 | 1.17 and 1.43 | 1.01 and 1.45 | 0.753 and 1.21 | 1.58 and 0.909 |  |  | 2.01 and 0.944 |  |  |  | 0.823 |  | 1.94 and 1.45 | 2.05 and 0.791 | 1.16 and 1.35 | 0.812 and 0.52
CC(=O)c1ccccc1 [acetophenone] | 0.941 | 0.974 | 3.74 | 0.865 | 1.03 | 1.18 |  | 0.828 | 1.42 | 0.995 and 0.722 | 1.87 | 1.02 and 0.702 | 0.945 and 0.729 | 0.526 |  | 1.1 | 1.64 | 0.862 |  | 0.801
CC(C)(O)CCCC1=CCC(C=O)CC1 (centres undefined) [lyral] |  |  |  |  |  |  |  |  |  |  |  |  |  |  | 1.41 |  |  |  |  | 
C=C(C)C1CCC2=CC(=O)CC(C)C2(C)C1 (centres undefined) [amyl laurate] |  |  |  |  |  |  |  |  |  |  |  |  |  |  | 3.14 |  |  |  |  | 
CC12C=CCC1C1CCC3=CC(=O)CCC3(C)C1CC2 (centres undefined) [androstadienone] | 0.738 | 1.01 | 0.847 and 0.924 | 0.859 | 1.4 | 1.8 | 0.683 and 1.25 | 5.56 | 1.24 | 1.01 and 1.29 | 1.46 | 1.17 and 0.901 | 0.851 and 1.14 | 1.56 |  | 1.12 | 4.65 | 4.82 | 0.771 and 1.79 | 4.35
